Earlier results on one compound are cited in US5840324A, “Antiparasitic compositions” (Commonwealth Scientific and Industrial Organisation, priority 1993, dated 1998).

The conditions of this data set: in vivo.

Take `COCC(=O)Nc1cc(Sc2ccccc2)ccc1N/C(=N\C(=O)OC)NC(=O)OC` [febantel, 2'-[2,3-bis-(methoxycarbonyl)guanidino]-5'-phenylthio-2-methoxyacetanilide]: the metabolism result is listed as “metabolised to fenbendazole”.
